Two substances from doi:10.1101/2021.09.28.462098 can be followed below.

Sequences of proteins named here, by UniProt entry; tags and fusion partners are left off.
UniProt Q07335: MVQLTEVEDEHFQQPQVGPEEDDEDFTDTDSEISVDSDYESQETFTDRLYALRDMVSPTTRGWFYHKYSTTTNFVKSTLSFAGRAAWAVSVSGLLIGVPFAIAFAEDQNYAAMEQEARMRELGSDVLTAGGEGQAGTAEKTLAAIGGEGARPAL
UniProt Q7SG90: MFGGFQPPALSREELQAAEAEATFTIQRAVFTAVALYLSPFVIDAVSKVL
UniProt P24391: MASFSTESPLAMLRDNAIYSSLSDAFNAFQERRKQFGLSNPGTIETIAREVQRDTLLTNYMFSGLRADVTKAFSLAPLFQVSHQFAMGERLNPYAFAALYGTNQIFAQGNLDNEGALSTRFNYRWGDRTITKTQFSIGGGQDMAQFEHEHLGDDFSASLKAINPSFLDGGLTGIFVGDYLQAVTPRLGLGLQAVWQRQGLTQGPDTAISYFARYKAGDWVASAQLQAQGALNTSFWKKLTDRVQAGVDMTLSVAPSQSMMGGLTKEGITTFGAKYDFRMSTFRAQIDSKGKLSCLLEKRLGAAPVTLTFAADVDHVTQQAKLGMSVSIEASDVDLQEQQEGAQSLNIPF

The target of this assay is Tom22 with a hexahistidine tag at the C-terminus (Neurospora crassa) (UniProt Q07335). Briefly: co-purification.

These are yes or no findings as the source states them, for the method shown. Some binding calls cover weakened binding; strength is not graded here.

Regarding Tom5 (from UniProt Q7SG90 1-50), the binding result was “binds”. As to Tom40 (from UniProt P24391 1-349), the binding entry is “binds”.
